Experimental findings from the supplement of paper PMC10338343 are described below.

± gives the standard deviation. The entries are a selection whose mix differs from that of the whole data set. Many entries were measured with a wide error.

The experiment relates to MIWI (PIWIL1) piRISC loaded with piRNA #2 (30 nt). The experiment in a line: pre-steady-state target cleavage rate (min^-1); MIWI and MILI are mouse PIWI proteins and EfPiwi is from a freshwater sponge; tags in brackets are library labels; higher = faster piRNA-guided slicing of the target. Particulars: guide: piRNA #2 5'p-UUAGGUAACCCAGUAGAUCCAGAGGAAUUC; auxiliary factor: 500 nM mouse GTSF1. As for the experimental part: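 Cleave-'n-Seq: a library of target RNAs (target site embedded in constant flanks, ACAGCATTCCGCGTTAGTGATATCCG... 5' flank; DNA-blocked outside the site) at 0.1 nM was incubated with 1 nM active mouse MILI or MIWI piRISC (synthetic 5'-monophosphorylated piRNA guide) with or without 500 nM mouse GTSF1 at 33 °C for 1 min to 16 h. Uncleaved targets were sequenced and normalised to non-target controls, and the pooled three trials were fitted to a burst-and-steady-state model to give the pre-steady-state cleavage rate (min^-1; k3 is constrained to at most 1e-4). Sequence is the target site only; target names encode pairing extent (gX:gY) and contiguous / 1-mismatch / 2-mismatch / bulge geometry. Fits with R² ≤ 0 are excluded.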
For the sequence CUUAAGGACUGGAUCUACUGGGUUAACUAA, the “pre-steady-state target cleavage rate” value came to 0.116 ± 0.042. Take “CUUAAGGAGACCAUCUACUGGGUUACCUAA [g2:g18:cont:t1A]”: the “pre-steady-state target cleavage rate” value was 0.0028 ± 0.0042. CUUAAGGAGACCUACUACUGGGAUACCUAA: the “pre-steady-state target cleavage rate” value was 0.00133 ± 0.0043. For the sequence CUUAAGGUCUGGAUCUUCUGGGUAACCUAA, the “pre-steady-state target cleavage rate” value is 0.0193 ± 0.011.

Consider CUUAAGGAGACCUAGUACUGGGUUAUCUAA, for which the “pre-steady-state target cleavage rate” value was found to be 0.00107 ± 0.0062. Regarding CUUAAGGAGACCAUCUACUGGGAUACCAAA, the “pre-steady-state target cleavage rate” value stood at 0.000301 ± 0.023. On to CUUAAGGAGUGGAUCUUCAGGGUUACCUAA, for which the “pre-steady-state target cleavage rate” value worked out at 0.000511 ± 0.011. Regarding CUUAAGGAGAGGAUCUACUGCGUUACCAAA, the “pre-steady-state target cleavage rate” value is 0.00048 ± 0.015.

CUUAAGGAGACGAUCUUACUGGGUUACCUAA: the “pre-steady-state target cleavage rate” value is 0.000932 ± 0.0056. Next, CUUAUCCUCUGGAUCUACAGGGUUACCAAA: 0.237 ± 0.03. Next, CUUAAGGAGACCUACUACUGGGUUACCUGA: 0.000809 ± 0.0093; CUUAAGGAGACGGUCUACUGGGUUACCUAA: 0.000638 ± 0.012.

On to CUUAAGGAGAGGAUCUACUGGGAUUCCUAA, for which the “pre-steady-state target cleavage rate” value was determined as 0.000598 ± 0.015.

For the sequence CUUAAGGAGACCUAGAUCUGCGUUACCUAA, the “pre-steady-state target cleavage rate” value worked out at 0.00259 ± 0.0036.

Regarding CUUAACCUCUGGUUCUACUGGCUUACCUAA, the “pre-steady-state target cleavage rate” value turned out to be 0.112 ± 0.014. Regarding CUUAAGCUCUGGAUCUUACUGGGUUACCUAA, the “pre-steady-state target cleavage rate” value was 0.000838 ± 0.012.

With CUUAAGGAGACCUUCUACUGGGUGUACCUAA, the “pre-steady-state target cleavage rate” value stood at 0.00138 ± 0.0074. As to CUUAAGGAGACCUACUACAGGGUUACGUAA, the “pre-steady-state target cleavage rate” value was 0.00177 ± 0.0063. Regarding CUUAAGGAGACGAUCUACUGGGUUAACCUAA, the “pre-steady-state target cleavage rate” value worked out at 0.00161 ± 0.0034. CUUAAGGACUGGAUCUAGUGGCUUACCUAA: the “pre-steady-state target cleavage rate” value was 0.00416 ± 0.0083.

Consider CUUAAGGAGUGGAUCUACUGGAGUUACCUAA, for which the “pre-steady-state target cleavage rate” value came to 0.00147 ± 0.01. Consider CUUAAGGAGACCUAGAUGACGGGUUACCUAA, for which the “pre-steady-state target cleavage rate” value was 0.000323 ± 0.018. In the case of CUUAAGGAGAGGAUCUACGGGUUACCUAA, the “pre-steady-state target cleavage rate” value is 0.000263 ± 0.023.

As to CUUAAGGAGACCAUCUACAUGGGUUACCUAA, the “pre-steady-state target cleavage rate” value was 0.00131 ± 0.0065. As for CUUAAGGAGACCUAGAUCUGGGUUAACCUAA, the “pre-steady-state target cleavage rate” value is 0.000105 ± 0.025. As for CUUAAGGACUGGAACUACUGGGUUUCCUAA, the “pre-steady-state target cleavage rate” value came out at 0.00419 ± 0.011. Then CUUAAGGAGACCUACUACUGCGUAACCUAA, with 0.000195 ± 0.02; and GAAUUCCUCUGGAUCUACUGAGGUUACCUAA, with 0.00556 ± 0.0037. Take CUUAAGGAGACCUAGAUCUGGGUUCCCUAA: the “pre-steady-state target cleavage rate” value is 0.000624 ± 0.012. CUUAAGGAGACCUAGUACUGGGUUCCCUAA: the “pre-steady-state target cleavage rate” value was 0.000141 ± 0.017.

Take CUUAACCUCUGGAUCUAGUCGGUUACCUAA: the “pre-steady-state target cleavage rate” value worked out at 0.0063 ± 0.0049. For the sequence CUAUUCCUCUGGAUCUACUGCGGUUACCUAA, the “pre-steady-state target cleavage rate” value worked out at 0.00224 ± 0.0037. Turning to CUUAAGGAGACCAUCUCCUGGGUUACCUAA, the “pre-steady-state target cleavage rate” value amounted to 0.00259 ± 0.0065. Then CUUAAGGAGACCUAGAUCUGAGUUACCUAA, with 0.000167 ± 0.033; and CUUAAGGAGUGGAUCUACUGGGUAUGCUAA, with 0.000171 ± 0.034; and CUUAAGGACUGGAUGUACUGGGUUACCAAA, with 0.0328 ± 0.037. In the case of CUUAAGGAGACCUUUACUGGGUUACCUAA, the “pre-steady-state target cleavage rate” value turned out to be 0.0022 ± 0.0056. As to CUAUUCCAUCUGGAUCUACUGGGUUACCUAA, the “pre-steady-state target cleavage rate” value worked out at 0.537 ± 0.053.

In the case of CUUAAGGAGACGAUCUACUGGGUUAGCCUAA, the “pre-steady-state target cleavage rate” value turned out to be 0.00216 ± 0.0051. Turning to CUUAAGGAGACCUAGAUCUGGGUUACCUGAA, the “pre-steady-state target cleavage rate” value came to 0.000513 ± 0.015. Consider CUUAAGGUCUGGAUCUACUCGCUUACCUAA, for which the “pre-steady-state target cleavage rate” value worked out at 0.000866 ± 0.02. Next, CAAUUCCUCUGGAUCUACUCCCUUACCUAA: 0.0015 ± 0.0077; CUUAAGGAGACCAUCAACUGGGUUACCUAA: 0.00135 ± 0.0043. With CUUAAGGACUGGUACUACUGGGUUACCUAA, the “pre-steady-state target cleavage rate” value was found to be 0.00399 ± 0.015. Turning to CUUAAGGAGACCUAGAAGUGGGUUACGUAA, the “pre-steady-state target cleavage rate” value was determined as 0.000324 ± 0.019. For the sequence CUUUUCCUCUGGAUCUACUCGGGUUACCUAA, the “pre-steady-state target cleavage rate” value came out at 0.0024 ± 0.0059.

For CUUUUCCUCUCGUUCUACUGGGUUACCUAA, the “pre-steady-state target cleavage rate” value came out at 0.519 ± 0.041.

As for CUUAAGGAGAGGAUCUACUGGCUUUCCUAA, the “pre-steady-state target cleavage rate” value was 0.000442 ± 0.016. As to CUUAAGGAGACGAUCUUCUGGGUUACCUAA, the “pre-steady-state target cleavage rate” value stood at 0.00141 ± 0.0039.

As to CUUAAGGAGACCAUCUACUGCGUUACCUUA, the “pre-steady-state target cleavage rate” value was found to be 0.000619 ± 0.0075.

Regarding CUUAAGGAGUGGAACUACUGGCUUACCUAA, the “pre-steady-state target cleavage rate” value turned out to be 0.00115 ± 0.015. For CUUAAGGAGAGGUUCUAGUGGGUUACCUAA, the “pre-steady-state target cleavage rate” value worked out at 0.000726 ± 0.01.

Take CUUAAGGAGACCUACUACUGGGUUACUCUAA: the “pre-steady-state target cleavage rate” value was 0.000227 ± 0.031. In the case of CUUAAGGAGACCUAGAUCUGGGUUACCCAA, the “pre-steady-state target cleavage rate” value is 0.000425 ± 0.016.

As for CUUAAGGAGACCUAGAUGACGUUUACCUAA, the “pre-steady-state target cleavage rate” value was found to be 0.000151 ± 0.035. For the sequence CUUAAGGAGACGUACUACUGGGUUACCUAA, the “pre-steady-state target cleavage rate” value was 0.000914 ± 0.0065. Regarding CUUAAGGAGACCAUCUACUGGGUUACCUGA, the “pre-steady-state target cleavage rate” value amounted to 0.00218 ± 0.0043.

For CUUAAGGAGACCAUCUACUGUGGUUACCUAA, the “pre-steady-state target cleavage rate” value is 0.00118 ± 0.0053. CUUAAGGAGAGGAUCUACGGGGUUACCUAA: the “pre-steady-state target cleavage rate” value was 0.00226 ± 0.006. For CUAUUCCUCUGCAUCUACUGGGUUACCUAA, the “pre-steady-state target cleavage rate” value is 0.463 ± 0.04. Regarding CUUAAGGAGACCAACUACUGCGUUACCUAA, the “pre-steady-state target cleavage rate” value amounted to 0.00209 ± 0.006.

With CUUAAGGAGACCUACUACUGCGUUACCUUA, the “pre-steady-state target cleavage rate” value is 0.000573 ± 0.013. CUUAAGGAGUGGAACUACUGGGUUACCUUA: the “pre-steady-state target cleavage rate” value turned out to be 0.00839 ± 0.0089. On to CUUAAGGAGACCUACUACUGGGUUACUUAA, for which the “pre-steady-state target cleavage rate” value is 0.00124 ± 0.0049. Regarding GAUUUCCUCUGGAUCUACUGGGUUACCUAA, the “pre-steady-state target cleavage rate” value was found to be 0.183 ± 0.042. As for CUAAUCCUCUGGUUCUACUGGGUUACCUAA, the “pre-steady-state target cleavage rate” value came to 0.755 ± 0.048. As to CUUAAGGAGACCUAGAUCUGCGUUACGUAA, the “pre-steady-state target cleavage rate” value was 0.000933 ± 0.0096. For CUUUUCCUCAGGAUCUACUGGGUUAGCUAA, the “pre-steady-state target cleavage rate” value worked out at 0.133 ± 0.041.

In the case of CUUAAGGAGACCAUCUACUGGGUGACCUAA, the “pre-steady-state target cleavage rate” value was found to be 0.000201 ± 0.019. With CUUAAGGAGUGGAUCUACUGCGUAACCUAA, the “pre-steady-state target cleavage rate” value was 0.00324 ± 0.0064. For CUUAAGGAGACCUAGAUCUGGGUUACAUAA, the “pre-steady-state target cleavage rate” value was determined as 0.000977 ± 0.0053. Regarding CUUAAGGAGACCUUCUACUGGGUUAGCUAA, the “pre-steady-state target cleavage rate” value was found to be 0.00152 ± 0.0047.
